# Source: the supplement of paper PMC8728848
# This is one part of the list.
# Key:
# Test in all cases: glycan array binding signal (z-score within array); higher = stronger binding
# Conditions in all cases: glycan notation: IUPAC condensed, linker removed
# GalNAc(b1-4)GlcNAc = biological target: GalNAc(b1-4)GlcNAc
# Procedure, shortened: (§1)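 The binding signal is a Z-score computed within each array. Data were drawn from 3228 arrays in the Consortium for Functional Glycomics database, restricted to those with a known protein sequence. Scores were averaged over arrays of the same protein sequence at different concentrations or buffers, and over linkers, and negative values can be taken as non-binding.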
# [1] = biological target: GalNAc(b1-4)GlcNAc(b1-2)Man
# Procedure, shortened: as §1
# [2] = biological target: GalNAc(b1-4)GlcNAc(b1-2)Man(a1-3)[GalNAc(b1-4)GlcNAc(b1-2)Man(a1-6)]Man(b1-4)GlcNAc(b1-4)GlcNAc
# Procedure, shortened: as §1
# [3] = biological target: GalNAc(b1-4)GlcNAc(b1-3)GalNAc(b1-4)GlcNAc
# Procedure, shortened: as §1
# GalNAc(b1-4)GlcNAc6S = biological target: GalNAc(b1-4)GlcNAc6S
# Procedure, shortened: as §1
# GalNAc(b1-6)GalNAc = biological target: GalNAc(b1-6)GalNAc
# Procedure, shortened: as §1
# GalNAc3S(b1-4)GlcNAc = biological target: GalNAc3S(b1-4)GlcNAc
# Procedure, shortened: as §1
# GalNAc3S(b1-4)GlcNAc3S = biological target: GalNAc3S(b1-4)GlcNAc3S
# Procedure, shortened: as §1
# [4] = biological target: GalNAc3S(b1-4)[Fuc(a1-3)]GlcNAc
# Procedure, shortened: as §1
# GalNAc4S6S(b1-4)GlcNAc = biological target: GalNAc4S6S(b1-4)GlcNAc
# Procedure, shortened: as §1
# GalNAc6S(b1-4)GlcNAc = biological target: GalNAc6S(b1-4)GlcNAc
# Procedure, shortened: as §1
# Glc(a1-4)Glc = biological target: Glc(a1-4)Glc
# Procedure, shortened: as §1
# [5] = biological target: Glc(a1-4)Glc(a1-4)Glc(a1-4)Glc
# Procedure, shortened: as §1
# Glc(a1-6)Glc(a1-6)Glc = biological target: Glc(a1-6)Glc(a1-6)Glc
# Procedure, shortened: as §1
# [6] = biological target: Glc(a1-6)Glc(a1-6)Glc(a1-6)Glc
# Procedure, shortened: as §1
# Glc(b1-4)Glc = biological target: Glc(b1-4)Glc
# Procedure, shortened: as §1
# Glc(b1-6)Glc = biological target: Glc(b1-6)Glc
# Procedure, shortened: as §1
# GlcA(b1-3)Gal = biological target: GlcA(b1-3)Gal
# Procedure, shortened: as §1
# GlcA(b1-3)GlcNAc = biological target: GlcA(b1-3)GlcNAc
# Procedure, shortened: as §1
# GlcA(b1-6)Gal = biological target: GlcA(b1-6)Gal
# Procedure, shortened: as §1
# [7] = biological target: GlcA3S(b1-3)Gal(b1-4)GlcNAc(b1-2)Man
# Procedure, shortened: as §1
# [8] = biological target: GlcA3S(b1-3)Gal(b1-4)GlcNAc(b1-3)Gal(b1-4)Glc
# Procedure, shortened: as §1
# [9] = biological target: GlcNAc(a1-3)Gal(b1-4)GlcNAc
# Procedure, shortened: as §1
# [10] = biological target: GlcNAc(a1-4)Gal(b1-3)GlcNAc
# Procedure, shortened: as §1
# [11] = biological target: GlcNAc(a1-4)Gal(b1-4)GalNAc
# Procedure, shortened: as §1
# [12] = biological target: GlcNAc(a1-4)Gal(b1-4)GlcNAc
# Procedure, shortened: as §1
# [13] = biological target: GlcNAc(a1-4)Gal(b1-4)GlcNAc(b1-3)Gal(b1-4)Glc
# Procedure, shortened: as §1
# [14] = biological target: GlcNAc(a1-4)Gal(b1-4)GlcNAc(b1-3)Gal(b1-4)GlcNAc
# Procedure, shortened: as §1
# [15] = biological target: GlcNAc(a1-4)Gal(b1-4)GlcNAc(b1-3)Gal(b1-4)GlcNAc(b1-3)Gal(b1-4)GlcNAc
# Procedure, shortened: as §1
# [16] = biological target: GlcNAc(a1-4)Gal(b1-4)GlcNAc(b1-3)Gal(b1-4)[Fuc(a1-3)]GlcNAc(b1-3)Gal(b1-4)[Fuc(a1-3)]GlcNAc
# Procedure, shortened: as §1
binder,measurement,setting,value
"CcfD (Bacteroides vulgatus), A6KYX8 (protein) MKYKNYFKSIIYLALGAFTLGSCEDFLDRQEDEKLTFDKIWESRNTTQQYWLNAMSFLPNENGSLQGDTEPYLGASDECTIAYDRQYRWINFGTWNPSQVPYYKMDHYYKGIRECNIFLQNVYKCSDPLVTKDQLDEWYWQTRFARAYYYFLMMRDYGPVFLLGDDLLDFTASTEELYRPRNTWDQCVNYVVSEMTQCAESGVVLQQSDLPAAKWGLATVGTCHAVISRLLLYSARPLFNGNKLYSTVKNPDAPDFPELSGVKLFPELDNTKWQKAAEAAKKLIDNPCYELYRAGNDNPYEDYYGVTHETWNKELIWTDRYNGLFSWGVGTVPTGVAGTAYGAVGPTQALVDAYAMNTGWYPITGYEADGTPIVEPLSGYELASELEKSSWIYPSGGWSNKADFEIEAPNMYKDREPRFYVTVFFGGNQWLHGNSATSISFAKGGNGNKSHDYPKSGYLCNRFYDHKLNSSEGQWGNITFPVFRLGEIYLNFIEAVLECKKNGVALDPSYEALAMEKWADLRKRAGLDPITSIYGQVSTEELIQLCRKERQIELAFERHRYFDTRTWMIATQTDNGKMYGMNTSCPLDAGMKGTETPDGFWERTAFETRVFQNKHYLYPFSQRELDRNKLLTQNYGW",glycan array binding signal (z-score),GalNAc(b1-4)GlcNAc,-0.091
same,glycan array binding signal (z-score),[1],-0.896
same,glycan array binding signal (z-score),[2],-0.683
same,glycan array binding signal (z-score),[3],-0.099
same,glycan array binding signal (z-score),GalNAc(b1-4)GlcNAc6S,-0.581
same,glycan array binding signal (z-score),GalNAc(b1-6)GalNAc,0.521
same,glycan array binding signal (z-score),GalNAc3S(b1-4)GlcNAc,-0.104
same,glycan array binding signal (z-score),GalNAc3S(b1-4)GlcNAc3S,-0.21
same,glycan array binding signal (z-score),[4],-0.18
same,glycan array binding signal (z-score),GalNAc4S6S(b1-4)GlcNAc,0.948
same,glycan array binding signal (z-score),GalNAc6S(b1-4)GlcNAc,-0.282
same,glycan array binding signal (z-score),Glc(a1-4)Glc,0.087
same,glycan array binding signal (z-score),[5],1.25
same,glycan array binding signal (z-score),Glc(a1-6)Glc(a1-6)Glc,-0.571
same,glycan array binding signal (z-score),[6],-0.363
same,glycan array binding signal (z-score),Glc(b1-4)Glc,0.404
same,glycan array binding signal (z-score),Glc(b1-6)Glc,-0.139
same,glycan array binding signal (z-score),GlcA(b1-3)Gal,-0.835
same,glycan array binding signal (z-score),GlcA(b1-3)GlcNAc,0.374
same,glycan array binding signal (z-score),GlcA(b1-6)Gal,-0.708
same,glycan array binding signal (z-score),[7],-0.404
same,glycan array binding signal (z-score),[8],-0.317
same,glycan array binding signal (z-score),[9],-0.236
same,glycan array binding signal (z-score),[10],1.04
same,glycan array binding signal (z-score),[11],0.669
same,glycan array binding signal (z-score),[12],-0.622
same,glycan array binding signal (z-score),[13],-0.724
same,glycan array binding signal (z-score),[14],-0.114
same,glycan array binding signal (z-score),[15],-0.581
same,glycan array binding signal (z-score),[16],-0.531

# Part of the list above, bar-delimited:
binder | measurement | setting | value
CcfD (Bacteroides vulgatus), A6KYX8 (protein) MKYKNYFKSIIYLALGAFTLGSCEDFLDRQEDEKLTFDKIWESRNTTQQYWLNAMSFLPNENGSLQGDTEPYLGASDECTIAYDRQYRWINFGTWNPSQVPYYKMDHYYKGIRECNIFLQNVYKCSDPLVTKDQLDEWYWQTRFARAYYYFLMMRDYGPVFLLGDDLLDFTASTEELYRPRNTWDQCVNYVVSEMTQCAESGVVLQQSDLPAAKWGLATVGTCHAVISRLLLYSARPLFNGNKLYSTVKNPDAPDFPELSGVKLFPELDNTKWQKAAEAAKKLIDNPCYELYRAGNDNPYEDYYGVTHETWNKELIWTDRYNGLFSWGVGTVPTGVAGTAYGAVGPTQALVDAYAMNTGWYPITGYEADGTPIVEPLSGYELASELEKSSWIYPSGGWSNKADFEIEAPNMYKDREPRFYVTVFFGGNQWLHGNSATSISFAKGGNGNKSHDYPKSGYLCNRFYDHKLNSSEGQWGNITFPVFRLGEIYLNFIEAVLECKKNGVALDPSYEALAMEKWADLRKRAGLDPITSIYGQVSTEELIQLCRKERQIELAFERHRYFDTRTWMIATQTDNGKMYGMNTSCPLDAGMKGTETPDGFWERTAFETRVFQNKHYLYPFSQRELDRNKLLTQNYGW | glycan array binding signal (z-score) | GalNAc6S(b1-4)GlcNAc | -0.282
same | glycan array binding signal (z-score) | Glc(a1-4)Glc | 0.087
